In patent US6410558B1, “Fungicides for the control of take-all disease of plants” (Monsanto Technology LLC, priority 1991, dated 2002):
Some results were stated once for a whole list of compounds, not compound by compound.

System: Gg
Experiment: Field Tests: seed treatment of wheat and barley in previously infested fields
Type: in vivo, Gaeumannomyces graminis
Settings: mixed with wheat and barley seed at 0.01 to 50 g active ingredient per kg of seed

Structure (SMILES) | incidence of Gg in previously infested fields compared to check fields seeded with untreated seed
CCNC(=O)c1c(Cl)cc(Cl)cc1[Si](C)(C)C [Example 234, 2,4-Dichloro-N-ethyl-6-(trimethylsilyl)benzamide] | reduce the incidence of Gg
CCN(CC)C(=O)c1c(C(F)(F)F)cccc1[Si](C)(C)C [Example 61, N,N-Diethyl-2-(trimethylsilyl)-6-(trifluoromethyl)benzamide] | reduce the incidence of Gg
CCN(CC=CC#CC(C)(C)C)C(=O)c1c(Cl)cccc1[Si](C)(C)C [Example 104, 2-Chloro-N-(6,6-dimethyl-2-hepten-4-ynyl)-N-ethyl-6-(trimethylsilyl)benzamide] | reduce the incidence of Gg
C[Si](C)(C)c1cccc(Cl)c1C(=O)NCc1ccccn1 [Example 135, 2-Chloro-N-(2-pyridinylmethyl)-6-(trimethylsilyl)benzamide] | reduce the incidence of Gg
CCNC(=O)c1cc([Si](C)(C)C)sc1[Si](C)(C)C [Example 269, N-Ethyl-2,5-bis(trimethylsilyl)-3-thiophenecarboxamide] | reduce the incidence of Gg
CCNC(=O)c1c(F)cccc1[Si](C)(C)C [Example 117, N-Ethyl-2-fluoro-6-(trimethylsilyl)benzamide] | reduce the incidence of Gg
CCN(CC)C(=O)c1c(C)cccc1[Si](C)(C)C [Example 3, N,N-Diethyl-2-methyl-6-(trimethylsilyl)benzamide] | reduce the incidence of Gg
CCNC(=O)c1c(C)cccc1C(C)(C)C [Example 8, 2-(1,1-Dimethylethyl)-N-ethyl-6-methylbenzamide] | reduce the incidence of Gg
C[Si](C)(C)c1cc(Cl)sc1C(=O)NCCCl [Example 264, 5-Chloro-N-(2-chloroethyl)-3-(trimethylsilyl)-2-thiophenecarboxamide] | reduce the incidence of Gg
CCNC(=O)c1sc(SC)cc1[Si](C)(C)C [Example 261, N-Ethyl-5-(methylthio)-3-(trimethylsilyl)-2-thiophenecarboxamide] | reduce the incidence of Gg
CN(Cc1ccc(C(C)(C)C)cc1)C(=O)c1c(Cl)cccc1[Si](C)(C)C [Example 101, 2-Chloro-N-[[4-(1,1-dimethylethyl)phenyl]methyl]-N-methyl-6-(trimethylsilyl)-benzamide] | reduce the incidence of Gg
CCNC(=O)c1nc(Cl)sc1[Si](C)(C)C [Example 282, 2-Chloro-N-ethyl-5-(trimethylsilyl)-4-thiazolecarboxamide] | reduce the incidence of Gg
CC(C)c1ccccc1NC(=O)c1c(Cl)cccc1[Si](C)(C)C [Example 156, 2-Chloro-N-[2-(1-methylethyl)phenyl]-6-(trimethylsilyl)benzamide] | reduce the incidence of Gg
CCN(CC)C(=O)c1ccc(C)c(F)c1[Si](C)(C)C [Example 57, N,N-Diethyl-3-fluoro-4-methyl-2-(trimethylsilyl)benzamide] | reduce the incidence of Gg
CCN(CC)C(=O)c1cc(C)ccc1[Si](C)(C)C [Example 63, N,N-Diethyl-5-methyl-2-(trimethylsilyl)benzamide] | reduce the incidence of Gg
CC(CCl)NC(=O)c1c(Cl)cccc1[Si](C)(C)C (centres unmarked) [Example 171, 2-Chloro-N-(2-chloro-1-methylethyl)-6-(trimethylsilyl)benzamide] | reduce the incidence of Gg
CCNC(=O)c1c(Cl)cccc1[Si](C)(C)CBr [Example 210, 2-[(Bromomethyl)dimethylsilyl]-6-chloro-N-ethyl-benzamide] | reduce the incidence of Gg
CCNC(=O)c1cc(NC)ccc1[Si](C)(C)C [Example 275, N-Ethyl-5-(methylamino)-2-(trimethylsilyl)benzamide] | reduce the incidence of Gg
CCN(CC)C(=O)c1c(I)ccc(F)c1[Si](C)(C)C [Example 40, N,N-Diethyl-3-fluoro-6-iodo-2-(trimethylsilyl)benzamide] | reduce the incidence of Gg
CC(C)SC(=O)c1c(Cl)cccc1[Si](C)(C)C [Example 78, 2-Chloro-6-(trimethylsilyl)-benzenecarbothioic acid, S-(1-methylethyl) ester] | reduce the incidence of Gg
C[Si](C)(C)c1cccc(Cl)c1C(=O)NC1CC1 [Example 34, 2-Chloro-N-cyclopropyl-6-(trimethylsilyl)benzamide] | reduce the incidence of Gg

Structure (SMILES) | incidence of Gg in previously infested fields compared to check fields seeded with untreated seed
CCNC(=O)c1c([Si](C)(C)C)ccc(-c2ccccc2)c1Cl [Example 242, 2-Chloro-N-ethyl-3-phenyl-6-(trimethylsilyl)benzamide] | reduce the incidence of Gg
C=CCNC(=O)c1c(Cl)cccc1[Si](C)(C)C [Example 106, 2-Chloro-N-2-propenyl-6-(trimethylsilyl)benzamide] | reduce the incidence of Gg
CCN(CC)C(=O)c1c(C(F)(F)F)ccc(C(F)(F)F)c1[Si](C)(C)C [Example 62, N,N-Diethyl-2-(trimethylsilyl)-3,6-bis(trifluoromethyl)benzamide] | reduce the incidence of Gg
CCN(CC)C(=O)c1c(C)ccc(F)c1[Si](C)(C)C [Example 1, N,N-Diethyl-3-fluoro-6-methyl-2-(trimethylsilyl)benzamide] | reduce the incidence of Gg
CC(NC(=O)c1c(Cl)cccc1[Si](C)(C)C)c1ccccc1 (centres unmarked) [Example 161, 2-Chloro-N-(1-phenylethyl)-6-(trimethylsilyl)benzamide] | reduce the incidence of Gg
CCNC(=O)c1cc(NC(=O)c2ccccc2)ccc1[Si](C)(C)C [Example 240, 5-(Benzoylamino)-N-ethyl-2-(trimethylsilyl)benzamide] | reduce the incidence of Gg
CN(C(=O)c1c(Cl)cccc1[Si](C)(C)C)C(C)(C)C [Example 23, 2-Chloro-N-(1,1-dimethylethyl)-N-methyl-6-(trimethylsilyl)benzamide] | reduce the incidence of Gg
Cc1ccccc1NC(=O)c1ccccc1[Si](C)(C)C [Example 121, N-(2-Methylphenyl)-2-(trimethylsilyl)benzamide] | reduce the incidence of Gg
CCN(C(=O)c1c(Cl)cccc1[Si](C)(C)C)C(C)C [Example 18, 2-Chloro-N-ethyl-N-(1-methylethyl)-6-(trimethylsilyl)benzamide] | reduce the incidence of Gg
CCNC(=O)c1c(Cl)cccc1C(C)(C)C [Example 285, 2-Chloro-N-ethyl-6-(1,1-dimethylethyl)benzamide] | reduce the incidence of Gg
CCNC(=O)c1cc(Br)sc1[Si](C)(C)C [Example 268, 5-Bromo-N-ethyl-2-(trimethylsilyl)-3-thiophenecarboxamide] | reduce the incidence of Gg
C[Si](C)(C)c1cccc(Cl)c1C(=O)NCC(F)(F)F [Example 25, 2-Chloro-N-(2,2,2-trifluoro-ethyl)-6-(trimethylsilyl)-benzamide] | reduce the incidence of Gg
C[Si](C)(C)c1cccc(Cl)c1C(=O)NCCCl [Example 29, 2-Chloro-N-(2-chloroethyl)-6-(trimethylsilyl)benzamide] | reduce the incidence of Gg
C[Si](C)(C)c1cccc(Cl)c1C(=O)N1CCCCC1 [Example 134, N-[2-Chloro-6-(trimethylsilyl)benzoyl]-piperidine] | reduce the incidence of Gg
C/C=C/NC(=O)c1c(Cl)cccc1[Si](C)(C)C [Example 113, (E)-2-Chloro-N-1-propenyl-6-(trimethylsilyl)benzamide] | reduce the incidence of Gg
CCN(C(C)=O)C(=O)c1c(Cl)cccc1[Si](C)(C)C [Example 47, N-Acetyl-2-chloro-N-ethyl-6-(trimethylsilyl)benzamide] | reduce the incidence of Gg
C[Si](C)(C)c1cccc(Cl)c1C(=O)Nc1ccccc1C1CCCC1 [Example 158, 2-Chloro-N-(2-cyclopentylphenyl)-6-(trimethylsilyl)benzamide] | reduce the incidence of Gg
C#CCNC(=O)c1c(Br)cccc1[Si](C)(C)C [Example 206, 2-Bromo-N-2-propynyl-6-(trimethylsilyl)benzamide] | reduce the incidence of Gg
C[Si](C)(C)c1cccc(Cl)c1C(=O)NCc1ccccc1 [Example 31, 2-Chloro-N-(phenylmethyl)-6-(trimethylsilyl)benzamide] | reduce the incidence of Gg
C[Si](C)(C)c1cccc(Cl)c1C(=O)NC1CCCCC1 [Example 129, 2-Chloro-N-cyclohexyl-6-(trimethylsilyl)benzamide] | reduce the incidence of Gg
